# Experimental data taken from PMC3857619.
# The chains behind the UniProt entries cited, without tags or fusion partners.
# UniProt P26599: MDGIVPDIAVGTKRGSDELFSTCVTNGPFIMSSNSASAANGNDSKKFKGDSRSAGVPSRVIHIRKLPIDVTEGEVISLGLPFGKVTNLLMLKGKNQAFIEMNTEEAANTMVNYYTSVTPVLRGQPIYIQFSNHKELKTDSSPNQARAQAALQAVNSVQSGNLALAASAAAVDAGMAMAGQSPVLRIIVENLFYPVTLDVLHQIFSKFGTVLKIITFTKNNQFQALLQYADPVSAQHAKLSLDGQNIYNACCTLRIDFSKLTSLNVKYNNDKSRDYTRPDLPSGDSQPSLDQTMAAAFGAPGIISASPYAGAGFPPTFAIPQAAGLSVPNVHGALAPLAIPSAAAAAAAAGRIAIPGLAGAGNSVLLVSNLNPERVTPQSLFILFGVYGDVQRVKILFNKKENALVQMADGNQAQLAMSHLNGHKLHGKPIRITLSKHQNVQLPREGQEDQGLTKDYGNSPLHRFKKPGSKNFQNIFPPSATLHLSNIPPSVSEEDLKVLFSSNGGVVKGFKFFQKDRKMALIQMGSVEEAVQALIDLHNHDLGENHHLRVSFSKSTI
# UniProt P17844: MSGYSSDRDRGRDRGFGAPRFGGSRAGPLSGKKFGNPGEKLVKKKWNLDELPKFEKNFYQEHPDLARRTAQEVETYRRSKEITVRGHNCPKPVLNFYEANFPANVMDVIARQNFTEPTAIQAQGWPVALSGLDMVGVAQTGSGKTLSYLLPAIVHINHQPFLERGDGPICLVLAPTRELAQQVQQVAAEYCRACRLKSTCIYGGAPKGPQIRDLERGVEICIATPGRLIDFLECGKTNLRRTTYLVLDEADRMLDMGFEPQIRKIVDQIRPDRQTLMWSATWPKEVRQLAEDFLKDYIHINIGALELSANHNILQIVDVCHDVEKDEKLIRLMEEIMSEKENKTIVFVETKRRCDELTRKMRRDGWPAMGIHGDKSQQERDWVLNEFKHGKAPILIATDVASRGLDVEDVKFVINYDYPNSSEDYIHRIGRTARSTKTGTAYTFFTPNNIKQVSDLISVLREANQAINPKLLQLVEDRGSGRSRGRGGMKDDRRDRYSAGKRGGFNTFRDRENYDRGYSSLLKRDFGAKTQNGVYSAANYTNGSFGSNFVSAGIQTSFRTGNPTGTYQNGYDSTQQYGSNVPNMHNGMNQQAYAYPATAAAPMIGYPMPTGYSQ
# UniProt Q9NR30: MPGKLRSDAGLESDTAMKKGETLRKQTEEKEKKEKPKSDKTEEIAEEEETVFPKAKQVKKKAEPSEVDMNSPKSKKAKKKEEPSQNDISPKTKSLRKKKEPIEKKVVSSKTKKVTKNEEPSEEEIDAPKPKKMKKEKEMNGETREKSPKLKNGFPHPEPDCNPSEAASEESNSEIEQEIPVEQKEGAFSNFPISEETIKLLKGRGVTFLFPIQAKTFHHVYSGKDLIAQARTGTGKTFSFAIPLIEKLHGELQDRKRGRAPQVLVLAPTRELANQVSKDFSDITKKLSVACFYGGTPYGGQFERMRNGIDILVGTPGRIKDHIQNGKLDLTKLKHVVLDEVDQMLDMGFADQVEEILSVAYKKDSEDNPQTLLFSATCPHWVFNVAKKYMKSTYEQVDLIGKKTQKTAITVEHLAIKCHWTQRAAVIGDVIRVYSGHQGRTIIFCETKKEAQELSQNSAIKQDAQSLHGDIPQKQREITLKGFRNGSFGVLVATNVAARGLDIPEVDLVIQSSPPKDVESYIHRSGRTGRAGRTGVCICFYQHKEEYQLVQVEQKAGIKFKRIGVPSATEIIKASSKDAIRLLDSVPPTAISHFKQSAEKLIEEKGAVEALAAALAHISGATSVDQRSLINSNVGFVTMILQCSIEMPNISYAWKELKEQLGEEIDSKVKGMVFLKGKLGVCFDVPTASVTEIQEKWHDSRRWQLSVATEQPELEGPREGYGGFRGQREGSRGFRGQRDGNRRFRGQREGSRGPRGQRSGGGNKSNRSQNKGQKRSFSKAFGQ
# No constants are given. Whether binding was seen depends on the method and setting. In cells and extracts the contact can be indirect. Here binding means that the protein was enriched with, or labelled near, the bait; the list need not be complete.
# Target: polypyrimidine tract-binding protein (human (endogenous in MCF7 and HeLa)) (UniProt P26599)
# Experiment: affinity purification with mass spectrometry; anti-PTB immunoprecipitation from nuclear and cytoplasmic lysates of MCF7 cells, mock or TRAIL for 3 h; SDS-PAGE, LC-MS/MS; three independent occasions
row,binding,Substance
1,binds,DDX5 (from UniProt P17844 1-614)
2,binds,DDX21 (from UniProt Q9NR30 1-783)
3,binds,hnRNPK (from UniProt P61978 1-463)
